# From PubChem BioAssay AID504467 (National Center for Advancing Translational Sciences (NCATS), 2011)
# Hit rate of the full screen: of about 330,000 compounds, about 7,700 (2.3%) were called active. Inconclusive results, whose numbers are uncertain, are shown with a selection of clear calls. The call rests on the fitted dose curve; in most records, active means well fitted inhibition curve with a large enough effect; inconclusive means small, poorly fitted or top-dose-only effect, or effect the other way; inactive means flat fitted curve, though single readings scatter. Potencies beside an inconclusive call are fits to weak or partial responses and may not hold up.
# Test: qHTS screen for small molecules that inhibit ELG1-dependent DNA repair in human embryonic kidney (HEK293T) cells expressing luciferase-tagged ELG1; further: nearly all actives have a fitted effect of over 55% in size
# Conditions: HEK293T ELG1-luciferase reporter, luminescence, 16 h, DNA damage induced by 5-fluorouridine; series mostly up to 46.1 µM
# How it was run: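 Cells (2,000 per well) received 5-fluorouridine plus test compound or DMSO and were incubated 16 hr at 37 °C, 5% CO2. Luciferase activity was read by luminescence 30 min after ONE-Glo addition; signal suppression marked inhibition of damage-induced ELG1 function.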
# Potency means the concentration at half of the fitted maximal effect.
row,SMILES,Potency
1,O=C(Nc1nc(-c2ccccc2)cs1)C1CCCN(S(=O)(=O)c2cccc([N+](=O)[O-])c2)C1 (centres undefined),active: 16.4 µM
2,Cc1cc(Nc2ccc(C)c(C)c2)n2nc(C)nc2n1,"inconclusive: 6.51 µM [inhibitor, single point]"
3,N/C(=N\OC(=O)c1ccc(=O)n(Cc2ccccc2)c1)c1ccccn1,inactive
4,CN1C(=O)/C(=C/c2cccc([N+](=O)[O-])c2)C(=O)N1c1ccccc1,"inconclusive: 29.1 µM [activator, single point]"
5,Cc1c(C(=O)OC(C)C)sc(N)c1C(=O)OC(C)C,"inconclusive: 18.4 µM [activator, partial curve]"
6,COc1cc(/C=N/NC(N)=S)ccc1OC(=O)c1ccc(C)cc1,"inconclusive: 23.1 µM [inhibitor, single point]"
7,CCn1c(SCC(=O)N/N=C/c2cc(OC)c(O)c(OC)c2)nc2ccccc21,"inconclusive: 18.4 µM [inhibitor, partial curve]"
8,CCOCCn1[nH]c2ccccc2c1=O,inactive
9,Cc1cc(NC(=O)CCC2CCCCC2)no1,"inconclusive: 18.4 µM [activator, partial curve]"
10,COc1cc(C(=O)Nc2nccs2)c(Br)c(OC)c1OC,"inconclusive: 20.6 µM [inhibitor, partial curve]"
11,CCCNC(=S)N1CCC(C(=O)c2ccc(OC)cc2)CC1,inactive
12,O=C(CN1CCCN(Cc2ccc(F)cc2Cl)C1=O)NC1CCCCCC1,"inconclusive: 25.9 µM [inhibitor, single point]"
13,O=C(c1ccccc1[N+](=O)[O-])N1CCN(c2ccc(N3CCOCC3)nn2)CC1,inactive
14,COc1ccccc1Nc1nnc(SCC(=O)N2CCCC2)s1,"inconclusive: 11.6 µM [activator, partial curve]"
15,CCOC(=O)c1cnc(Nc2nc3ccccc3o2)nc1C,"inconclusive: 0.184 µM [activator, partial curve]"
16,Cc1ccc(-n2c(C)cc(C(=O)NS(=O)(=O)c3ccc(C)cc3)c2C)cc1,"inconclusive: 29.1 µM [activator, single point]"
17,Cc1onc(-c2ccccc2)c1C(=O)N1CCCN2C(=O)c3ccccc3C21 (centres undefined),inactive
18,CCOC(=O)c1c(C)[nH]c(C(=O)COC(=O)CNC(=O)c2ccccc2Cl)c1C,"inconclusive: 23.1 µM [activator, partial curve]"
19,Fc1cccc(Cl)c1Cn1nnc(-c2ccc3c(c2)OCO3)n1,"inconclusive: 9.2 µM [activator, partial curve]"
20,Cc1cc(C)cc(C(N)=Nc2cccc(C#N)c2)c1,inactive
21,O=C(O)c1ccc(N2C(=O)CC(N3CCN(c4cccc(Cl)c4)CC3)C2=O)cc1 (centres undefined),"inconclusive: 3.16 µM [inhibitor, partial curve, poor fit]"
22,COc1ccc(/C=N/c2oc(-c3ccccc3)cc2C#N)cc1OC,"inconclusive: 0.184 µM [activator, single point]"

row,SMILES,Potency
1,Cc1ccc(Cn2ncc3c(N4CCCC4)ncnc32)cc1,"inconclusive: 25.9 µM [inhibitor, single point]"
2,CC1(C(=O)OCC(=O)NNC(=O)COc2ccc(Cl)cc2)CC1(Cl)Cl (centres undefined),inactive
3,CCN(CC)CCCN(C(=O)c1ccc(OC)cc1)c1nc(-c2ccc(OC)cc2)cs1,"inconclusive: 8.2 µM [inhibitor, partial curve, poor fit]"
4,CCOC(=O)N1CCN(C(=O)c2ccc3c(=O)n(Cc4ccc(OC)cc4)c(=S)[nH]c3c2)CC1,active: 13 µM
5,COc1cc(C(=O)N(Cc2cccnc2)Cc2cc3cc4c(cc3[nH]c2=O)OCCO4)cc(OC)c1OC,"inconclusive: 16.4 µM [inhibitor, single point]"
6,O=C1c2ccccc2-c2onc3c(N4CCN(CCO)CC4)cc(N4CCN(C(=O)c5ccco5)CC4)c1c23,"inconclusive: 20.6 µM [inhibitor, partial curve, poor fit]"
7,CC(=O)c1ccc(N2CCN(S(=O)(=O)c3csc(C(N)=O)c3)CC2)cc1,inactive
8,Cc1ccnn1CC(=O)N/N=C/c1c[nH]c2ccccc12,inactive
9,CC(Oc1cccc(Cl)c1)C(=O)Nc1ccccc1N1CCCCC1 (centres undefined),inactive
10,Cc1ccccc1C(=O)c1cccn1CC(=O)NCc1ccccc1Cl,"inconclusive: 20.6 µM [activator, partial curve]"
11,COc1ccc(CNC(=O)c2cc3c(=O)[nH]c4ccccc4c3n2C)cc1,"inconclusive: 0.082 µM [inhibitor, full curve, poor fit]"
12,O=S(=O)(Nc1ccc2nc(N3CCOCC3)sc2c1)c1ccccc1,"inconclusive: 4.11 µM [activator, full curve]"
13,O=C(Nc1nc(-c2ccc(Cl)s2)cs1)c1cccs1,inactive
14,COc1ccc(OC)c(-c2cc(C(=O)Nc3c(C)nn(Cc4ccc(Cl)cc4)c3C)no2)c1,"inconclusive: 20.6 µM [inhibitor, single point]"
15,O=C1c2cnc3nc(SCc4cccc(Cl)c4)nn3c2CC2c3ccccc3CCN12 (centres undefined),inactive
16,O=C(Nc1ccc(F)cc1F)c1noc2c1CCC2,"inconclusive: 20.6 µM [activator, partial curve]"
17,Cc1ccccc1-n1sc2cc(F)ccc2c1=O,"inconclusive: 29.1 µM [inhibitor, single point]"
18,CCn1cc(C(=O)O)c(=O)c2cc(F)c(N/N=C/c3ccccc3[N+](=O)[O-])cc21,"inconclusive: 25.9 µM [inhibitor, partial curve, poor fit]"
19,CC1CCCN(c2ccc(C(=O)OCC(=O)N3c4ccccc4Sc4ccccc43)cc2[N+](=O)[O-])C1 (centres undefined),inactive
20,COc1ccc(C(=O)COc2ccccc2N2C(=O)C3C4C=CC(C4)C3C2=O)cc1 (centres undefined),"inconclusive: 14.6 µM [activator, partial curve]"
21,Cc1cccnc1NC(=O)CNC(=O)c1sc2ccccc2c1Cl,"inconclusive: 35.5 µM [activator, single point]"
22,N/C(=N\OC(=O)c1ccc(Cl)cc1Cl)c1ccccc1,"inconclusive: 0.517 µM [activator, partial curve, poor fit]"

# Some of these compounds in order of SMILES length, ascending:
row,SMILES,Potency
9,Cc1cc(NC(=O)CCC2CCCCC2)no1,"inconclusive: 18.4 µM [activator, partial curve]"
11,COc1ccc(CNC(=O)c2cc3c(=O)[nH]c4ccccc4c3n2C)cc1,"inconclusive: 0.082 µM [inhibitor, full curve, poor fit]"
7,CCn1c(SCC(=O)N/N=C/c2cc(OC)c(O)c(OC)c2)nc2ccccc21,"inconclusive: 18.4 µM [inhibitor, partial curve]"
18,CCn1cc(C(=O)O)c(=O)c2cc(F)c(N/N=C/c3ccccc3[N+](=O)[O-])cc21,"inconclusive: 25.9 µM [inhibitor, partial curve, poor fit]"
